In patent publication US10471127B2 (Mederis Diabetes, LLC, priority 2011, dated 2019):

Assay: general procedure: Fmoc solid-phase peptide synthesis; Rink amide resin; DIC/HOBt
Details: whole synthesis, analytical hplc (30-60% CH3CN in 0.1% TFA)/mass spectrometry

In the case of “His-Aib-Gln-Gly-Thr-Phe-Thr-Ser-Asp-Bip-Ser-Lys-Tyr-Leu-Glu-Ser-Lys(1'-dodecyl beta-D-glucuronyl)-NH2”, the “final HPLC purity” value is reported as 98.03%.
